Source: patent US8124742
Results are given in words; binding and its absence hold for the method and conditions named. Some results given as binding are weak or reduced against the parent protein; the word gives no strength. Each block holds one binder with its values, some of them ahead of it.

By UniProt entry, the sequences of proteins in these tests, tags left out. Residues count along the entry.
UniProt Q02161, residues 2-417: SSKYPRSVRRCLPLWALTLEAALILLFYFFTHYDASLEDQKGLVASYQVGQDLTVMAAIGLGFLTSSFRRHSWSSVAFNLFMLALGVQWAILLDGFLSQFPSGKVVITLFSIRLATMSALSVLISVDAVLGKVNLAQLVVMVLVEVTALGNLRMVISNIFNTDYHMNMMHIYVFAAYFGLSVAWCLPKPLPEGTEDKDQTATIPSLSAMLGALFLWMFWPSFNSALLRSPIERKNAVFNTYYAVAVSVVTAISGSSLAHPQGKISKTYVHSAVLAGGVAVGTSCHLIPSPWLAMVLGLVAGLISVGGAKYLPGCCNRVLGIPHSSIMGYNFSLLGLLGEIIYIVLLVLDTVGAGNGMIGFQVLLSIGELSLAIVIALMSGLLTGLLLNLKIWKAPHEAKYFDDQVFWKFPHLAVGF

Biological target: human Rh(D) antigen on Rh(D)-positive red blood cells (human) (UniProt Q02161)
Assay: agglutination, anti-M13

binding: binds
B1: SH56 (Fab, V domains shown)
VH: EVQLLESGGGVVQPGRSLRLSCAASGFTFSSYGMHWVRQAPGKGLEWVAVVYYDGSNKHYSDSVKGRFTIFRDNSKNTLYLQMDSLRAEDTAVYYCARERNFRSGYSRYYYGMDVWGPGTTVTVSS
VL: AELTQSPSSLSASVGDRVTITCRASQSISRYLNWYQQKPGKAPKLLIYAASSLQSGVPSRFSGSGSGTDFALTISSLLPEDFATYYCQQGYSTPPYSFGQGTKLEIKR

binding: binds
B2: SH17 (Fab, V domains shown)
VH: EVQLLESGGGLVQPGGSLRLSCGASGIPFVSSWMAWVRQAPGKGLEWVANIKQDGSKKNYVDSVEGRFTISRDNAKNSLYLQMDSLRAEDTRIYYCARDSLTCFDYWGQGALVTVSS
VL: AELQDPVVSVALGQTVRITCQGDGLRSYYASWYQQKPGQAPKLVMYGRNNRPSGIPGRFSGSSSGQTAALTITGTQAEDEADYYCQSRATSGNPVVFGGGTKLTVL
